For one molecule, IC50 results are on record in US6372212B1, “Chitinase materials and methods” (ICOS Corporation, priority 1996, dated 2002).

In test [1] the test system is Aspergillus fumigatus (ATCC no. 16424). The test can be described thus: Broth assay. The format is cell-based. The note with it: ATCC16424, lowest concentration inhibiting growth by at least 50%. Here is the method: (§1) In additional experiments, the anti-fungal activity of recombinant human chitinase (produced in COS cells as described in Example 5A) was evaluated in an agar diffusion assay, in a broth assay according to National Committee on Clinical Laboratory Standards, and in a cell wall inhibition assay according to Selitrennikoff, Antimicrob. Agents Chemother., 23:757-765 (1983).
(§2) In the broth assay, 50 μg/ml of the sample (A: recombinant human chitinase, B: buffer control, C: control protein, D: a bacterial lysate with chitinase activity, or a known anti-fungal agent) was added with a certain concentration of the test fungal organism to RPMI 1640 media buffered with MOPS, pH 7.0. The samples were incubated at 35° C., with shaking at 120 rpm, for 48 hours, and then growth was evaluated by measuring the turbidity of the suspension. The approximate concentrations of the test fungi were as follows: 2.5×10^4 cells/ml of Candida albicans (ATCC no. 90028); 5×10^4 cells/ml of Candida albicans-polyene resistant (ATCC no. 38247); 1 x 10^4 cells/ml of Aspergillus fumigatus (ATCC no. 16424); 1×10^4 cells/ml of Neurospora crassa (ATCC no. 18889); and 1×10^4 cells/ml of Saccharomyces cerevisiae (ATCC no. 26108).

In test [2] the test system is Candida albicans-polyene resistant (ATCC no. 38247). The test can be described thus: Broth assay. The format is cell-based. The note with it: lowest concentration inhibiting growth by at least 50%. The procedure: as §1, §2

Values after ≈ are worked out from the molar mass of the structure shown.

In general, IC50 refers to the concentration at which inhibition is half-maximal. In the case of `Clc1ccc(COC(Cn2ccnc2)c2ccc(Cl)cc2Cl)c(Cl)c1` (centres unmarked) [miconazole], the half-maximal inhibitory concentration (IC50) was 0.5 µg/mL (≈ 1.2 µM) in test [1] and 2 μg/ml (growth is 50% of control) in test [2].
